Laboratory results as given in article PMC8476842, “Uncovering and Engineering a Mini-Regulatory Network of the TetR-Family Regulator SACE_0303 for Yield Improvement of Erythromycin in Saccharopolyspora erythraea”.
Construct, isoform or probe ends are uncertain for at least one entry. Protein sequences can lack the tags named with them.

Target: T1, SACE_0303 (TetR-family regulator) (Saccharopolyspora erythraea) (UniProt A4F6H8)
T1 sequence (looked up, limits assumed): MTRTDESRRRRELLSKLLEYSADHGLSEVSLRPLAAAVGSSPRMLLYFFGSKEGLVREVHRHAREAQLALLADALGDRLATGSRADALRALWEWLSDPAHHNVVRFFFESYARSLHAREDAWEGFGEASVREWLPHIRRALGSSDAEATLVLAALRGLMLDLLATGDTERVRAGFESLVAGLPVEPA
Experiment: EMSA
Conditions: EMSA: 10 mM Tris-HCl pH 7.5, 60 mM KCl, 10 mM DTT, 5 mM MgCl2, 10% glycerol, 150 ng probe, 20 uL, 30 C 20 min; footprint at 20 C; recombinant protein; protein details: His6 (pET28a, NdeI/HindIII); probe letters rebuilt from the primers and the genome

Sequence	binding result
CCGGCGTCCACTGAGCAACGCGCGTCCGACGCCCGGCAAGCACCGCGACTGGATCAGCTCCGCAGCGCCAGTCGGAAACCCCGCGCCCTTCCCGGCCCAGGTGTCCCCCCCGCGGGGCCTACGCCTGAAGCGGCCGTTTCCACGTCGCGGTGTCCTACATCCACAGTCGGGACGACGGGGTTTAACACTTCTATTGATAAATCTAGCTCGCCGTATGAGTATGGTGCGCGACGTTAGCGAGGTCGGCGTCCCCCGACGACGGCTCCCCGGTTACCGGTGGCCACCTCTACCCCGGTTCCGGCGGCGGCCTGGTGGCGGGCGCGCGTGACTCGCATCAGCACCTCAACGTGGAGGTTTGGC (double strand) [P5222]	binds
CCACACCCCGCTGGCACCAACTCCTCGATCACCACGACCATGCACCAACCACCACTGTCATACACGCCGATCATTCTGAAACGAGCGGTGAAGCACACGAACCGAGAAGTGCTTGTCGAGGGCCCAAAGCTTCCGATGTGTGGACGCCGGCGCTCCCGATTCGGCCAGCCGCAGGCCCCCGCCCGGCATGACGTCGGTCCCTGGCCACTGGCGTGCGGCGCGGGCAGGATAGGAACACCACCTCAGCTCAGGGGACGTTGATGAGTCGATGCGCCCGCAGCTGCCACCATGTCCCGAACGCCGCTCTCCGTAGGTACCGGGCCGGCATCGCGCGCGACGAGGTGACCTG (double strand) [P2467]	binds
